This is one part of the list.

Chains of the proteins cited; added tags and fusions are not shown.
UniProt Q0JBA9, entry or part of it: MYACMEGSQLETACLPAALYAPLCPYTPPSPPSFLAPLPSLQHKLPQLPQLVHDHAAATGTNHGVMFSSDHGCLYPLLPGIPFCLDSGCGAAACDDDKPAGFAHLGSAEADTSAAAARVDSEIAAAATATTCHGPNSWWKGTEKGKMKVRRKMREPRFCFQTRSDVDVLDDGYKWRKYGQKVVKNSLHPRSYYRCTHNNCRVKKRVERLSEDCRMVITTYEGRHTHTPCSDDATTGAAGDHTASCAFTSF

In this experiment the target is OsWRKY34 (Oryza sativa, UniProt Q0JBA9 1-250). Kind of experiment: protein-binding microarray (RPBM); PBS, 2% BSA, 51.3 ng/ul salmon testes DNA, 50 uM zinc acetate, 200 nM TF, 25 C, 1 h; high values mean tight binding. Particulars: protein: recombinant; tags: N-terminal polyhistidine and DsRed monomer fusion (pET32a); label: CyDye5-dUTP incorporated in the synthesized complementary strand; 3' TTTTT single-stranded linker to array surface; dsDNA, one strand shown. The method in brief: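 The binding signal is fluorescence intensity per feature, in arbitrary units, read on an Axon 4000B scanner. Polyhistidine- and DsRed-tagged transcription factors (N-terminal fusions) from E. coli BL21-CodonPlus were purified on Ni–NTA and applied at 200 nM for 1 h at 25 °C to a double-stranded, BSA-blocked custom Agilent array in buffer with 50 µM zinc acetate.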
Regarding “AAGAGGTTGGTTTGGAAATGCATATTGAGCCCTGTACTGTCGGAGTCACCTAGTGCAG”, the binding signal was 10000 fluorescence intensity (a.u.).
In the case of “TCCATTGCATGCAGCTCATCATGTCACGTCCTTACATGCTCGGAGTCACCTAGTGCAG”, the binding signal is 10800 fluorescence intensity (a.u.).
On to “GTTATTTTTTCGTTTATATTTAATATTCATACATGTATCCCGGAGTCACCTAGTGCAG”, for which the binding signal was 9980 fluorescence intensity (a.u.).
On to “GCCGGTACGGTGAAGATTTGCTCCACCCACTTTTTCTTCACGGAGTCACCTAGTGCAG”, for which the binding signal was 8490 fluorescence intensity (a.u.).
Turning to “AGAGGGAGGAGGGGACTGGGGCGGCGGCTAGGGTTGGGGACGGAGTCACCTAGTGCAG”, the binding signal was 15600 fluorescence intensity (a.u.).
For “CGAGATCTTTGGTTTGGTTGGTTTCTTTAAGACCCGTGCGCGGAGTCACCTAGTGCAG”, the binding signal was 8780 fluorescence intensity (a.u.).
On to “TCAAAACCCTCGCCTCCGCTCTCTCGCGCACACTCGTGCTCGGAGTCACCTAGTGCAG”, for which the binding signal was 8940 fluorescence intensity (a.u.).
With “CTGTAGATAGGGGCAGTTATAAATACGCGGGGACAAAAAACGGAGTCACCTAGTGCAG”, the binding signal is 13800 fluorescence intensity (a.u.).
As for “GGGCTTGTTTACTTTGTTATTATTTTCGGTTCTACCATTTCGGAGTCACCTAGTGCAG”, the binding signal is 11600 fluorescence intensity (a.u.).
As to “GGTTGATTATTCCGTCGGCGTCAGCCATCAGGTGCATCACCGGAGTCACCTAGTGCAG”, the binding signal was 8040 fluorescence intensity (a.u.).
With “TTTGCGATCAATAATTCGTTGGTTCGTTCGTTCGCCGCTACGGAGTCACCTAGTGCAG”, the binding signal was 8040 fluorescence intensity (a.u.).
For “GGGATATGGAAACCACTAATACTAGTCATTTCGTCATGCTCGGAGTCACCTAGTGCAG”, the binding signal was 8100 fluorescence intensity (a.u.).
“AATAAAAACATAGGGTCTTTTTTGCAAAATTTGCTGATGTCGGAGTCACCTAGTGCAG”: the binding signal is 8590 fluorescence intensity (a.u.).
Consider “GAATCACCCACACACGACTTGCGTTTTTGTCTCTCTGCTCCGGAGTCACCTAGTGCAG”, for which the binding signal was 9820 fluorescence intensity (a.u.).
The figure for “AGAACACCCATTTCACTATTTCAGGCATCCATTTCGACACCGGAGTCACCTAGTGCAG” is 11300 fluorescence intensity (a.u.); for “GCACACTGTTTAAGCATCATTATTTGCTTGCATCTTGGGGCGGAGTCACCTAGTGCAG” it is 13200 fluorescence intensity (a.u.).
Consider “ATCCTATCTACACAAATCTTCTCATTTACACACCAATTAACGGAGTCACCTAGTGCAG”, for which the binding signal was 8330 fluorescence intensity (a.u.).
Turning to “GATTAATCACTCCTACTTTACGTTGTAAAAGTTGAAATTTCGGAGTCACCTAGTGCAG”, the binding signal was 9100 fluorescence intensity (a.u.).
“AAACTTTGATCACACTTTGGATGCATGTTCCTGCACAACACGGAGTCACCTAGTGCAG”: the binding signal was 11100 fluorescence intensity (a.u.).
The value for “CCTATATATTTTGGCGCTTCTGCGCGCGCCTCCTTATCTCCGGAGTCACCTAGTGCAG” was 8330 fluorescence intensity (a.u.).
As for “GTTCCGAACGGATATGACTCATTATTCATTATTATCAGGACGGAGTCACCTAGTGCAG”, the binding signal was 8250 fluorescence intensity (a.u.).
“TCTCTCCATTGCTAGCTCCTCATCACTCCATACAAACAACCGGAGTCACCTAGTGCAG”: the binding signal was 14000 fluorescence intensity (a.u.).
Turning to “TGTCCAACAACTGGCACACGCCTCGTCTTCTTCCGTGACGCGGAGTCACCTAGTGCAG”, the binding signal is 9820 fluorescence intensity (a.u.).
In the case of “ATGAATTGATAGTTGCATGTCTTCCTAAAGTCTTGTTTTTCGGAGTCACCTAGTGCAG”, the binding signal is 8540 fluorescence intensity (a.u.).
With “GGGCGTTTGGGTTGGGCCACAAGAAAATTCCTCGCTCGCCCGGAGTCACCTAGTGCAG”, the binding signal is 8070 fluorescence intensity (a.u.).
For the sequence “TCTCGTTTCGTTCGTGTATCATGTTTTTTTTTGGGTCGCTCGGAGTCACCTAGTGCAG”, the binding signal was 8730 fluorescence intensity (a.u.).
“CGCCCAACCCCAACACATGTACATTTCCCTTGGCTTGCTTCGGAGTCACCTAGTGCAG”: the binding signal is 10400 fluorescence intensity (a.u.).
Consider “TTCGCCCACTCACACACACTGACACTGCCACCTCACTCTCCGGAGTCACCTAGTGCAG”, for which the binding signal was 9530 fluorescence intensity (a.u.).
In the case of “GCTCGCTTTCTCAGGTCTTTCTCTTCCCCGTATCCCCACTCGGAGTCACCTAGTGCAG”, the binding signal was 10500 fluorescence intensity (a.u.).
Consider “ATTCTCTCTTCTGTGTTTCCTTTTTGAGATACTTCATTTTCGGAGTCACCTAGTGCAG”, for which the binding signal is 9340 fluorescence intensity (a.u.).
Consider “ATTGCTTATACTTTTTTTAGTACCAACCGTTGGAAACAATCGGAGTCACCTAGTGCAG”, for which the binding signal was 9920 fluorescence intensity (a.u.).
The value for “GGAGAGAGAGGGGTTTGTGTGGCTGCGAGTGGGCCCCATGCGGAGTCACCTAGTGCAG” was 9060 fluorescence intensity (a.u.); that for “TACTTACTCCCTCCGTATTTTAATGTATGACGCCGTTGACCGGAGTCACCTAGTGCAG” was 14200 fluorescence intensity (a.u.); that for “CCCACCACCTATTGTAACTGTATCCCACTGTTCACTATTTCGGAGTCACCTAGTGCAG” was 11400 fluorescence intensity (a.u.).
With “GCTGGGAGGGAGGAGCGGGAGGCGGCGCGGCGCGTGGAGGCGGAGTCACCTAGTGCAG”, the binding signal is 8580 fluorescence intensity (a.u.).
Regarding “GTGAGCTACGATGGATGGTTTGGTTGATGGTTAAGTTCGACGGAGTCACCTAGTGCAG”, the binding signal was 9560 fluorescence intensity (a.u.).
“AGCAACATTATCCCACGCTTCATTTTGCCGCCATTGACCTCGGAGTCACCTAGTGCAG”: the binding signal is 12300 fluorescence intensity (a.u.).
The figure for “TGAATTGTGATCTCTCCACCACCATCACCACCACCACGACCGGAGTCACCTAGTGCAG” is 9630 fluorescence intensity (a.u.); for “GCTCGTCCTCCGCTGCACCACTTGCATCCGCGCGCGCTTCCGGAGTCACCTAGTGCAG” it is 11000 fluorescence intensity (a.u.).
Take “TGTGATTGGTTGTTCTTGGTTTACTTCACCCTGTTGCTTCCGGAGTCACCTAGTGCAG”: the binding signal was 8260 fluorescence intensity (a.u.).
Regarding “CGTCTTACGTCTTTTCCATCGCGTCCTTTGCGTCCTTTTGCGGAGTCACCTAGTGCAG”, the binding signal was 8970 fluorescence intensity (a.u.).
“AGATGTCCTAATGGAGCAGGTCATTTGGTTGGTATTCTGCCGGAGTCACCTAGTGCAG”: the binding signal was 8300 fluorescence intensity (a.u.).
